Binding data for 2 substances are collected here from article PMC3307752.

Protein sequences, listed by entry. Tags and fused reporters are not part of them. Residues count along the entry.
UniProt P25108, residues 21-457: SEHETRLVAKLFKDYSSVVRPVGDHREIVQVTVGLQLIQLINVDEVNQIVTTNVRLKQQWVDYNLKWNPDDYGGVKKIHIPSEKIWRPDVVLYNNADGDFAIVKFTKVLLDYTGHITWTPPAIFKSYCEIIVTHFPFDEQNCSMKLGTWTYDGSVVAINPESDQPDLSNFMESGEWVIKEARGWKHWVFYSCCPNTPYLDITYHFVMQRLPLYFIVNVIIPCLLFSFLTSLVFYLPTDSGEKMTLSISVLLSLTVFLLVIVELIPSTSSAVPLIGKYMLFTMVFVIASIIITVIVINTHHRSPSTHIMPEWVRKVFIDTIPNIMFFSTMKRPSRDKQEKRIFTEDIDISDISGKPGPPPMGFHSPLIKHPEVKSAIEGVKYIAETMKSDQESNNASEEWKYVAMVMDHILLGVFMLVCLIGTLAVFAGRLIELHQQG
UniProt O08589, residues 21-92: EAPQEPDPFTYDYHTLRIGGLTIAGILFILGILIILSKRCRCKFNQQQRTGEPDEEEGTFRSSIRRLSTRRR

The target of the test is nicotinic acetylcholine receptor α1 subunit (rat (endogenous in diaphragm muscle)) (UniProt P25108). In words: co-IP; rat diaphragm muscle from sham (control) or oral nicotine treated (21-31 days) rats, solubilized in lysis buffer (137 mM NaCl, 2.7 mM KCl, 1 mM MgCl2, 20 mM Tris pH 8.0, 1% Triton X-100, 10% glycerol); IP with monoclonal antibody to the nAChRα1 subunit, protein G-agarose beads 1 h at room temperature; Western blot for Na,K-ATPase α1, α2 and PLM.

Results are given in words; binding and its absence hold for the method and conditions named. In cells and extracts the contact can be indirect. Some results given as binding are weak or reduced against the parent protein; the word gives no strength.

“Na,K-ATPase α2 subunit (from UniProt P06686 1-1020) (enzyme)”: the binding result was “binds”.

Turning to “phospholemman (from UniProt O08589 21-92)”, the binding entry is listed as “binds”.
